PMC10235067, “Increased renal elimination of endogenous and synthetic pyrimidine nucleosides in concentrative nucleoside transporter 1 deficient mice” (Nature Communications, 2023)
“And” between values parts separate entries of the source, which are not always exact repeats. Equal values may be shown once.

Test system: CNT1
Assay: Untargeted metabolomics of Slc28a1-/- vs Slc28a1+/+ mouse urine (24 h, ad libitum)
Details: Slc28a1-/- / Slc28a1+/+

| Compound | Fold Change | log2(FC) |
| --- | --- | --- |
| Cn1c(N)nc2nc[nH]c2c1=O [1-Methylguanine] | 1.4659 | 0.5518 |
| CC(C)c1ccc(CCC=O)cc1 [3-(4-Isopropylphenyl)propanal] | 4E+00 and 4.1565 | 2.1 and 2.0554 |
| CCCCCCCCCCCCC/C=C/[C@@H](O)[C@H](CO)N(C)C [Dimethylsphingosine] | 5.3643 | 2.4234 |
| Cc1cc2ccc(=O)oc2cc1O [7-Hydroxy-6-methyl-2H-1-benzopyran-2-one] | 0.01617 | -5.9507 |
| CC(=O)N[C@@H](CS)C(=O)O [Acetylcysteine] | 2E-01 and 0.2203 | -2.2 and -2.1827 |
| N[C@@H](Cc1c[nH]c2ccc(O)cc12)C(=O)O [5-Hydroxy-L-tryptophan] | 1.5232 | 0.6071 |
| Cc1ncc(CO)c(C(=O)O)c1O [4-Pyridoxic acid] | 1.3575 | 0.441 |
| O=C(O)[C@@H](O)[C@H]1OC(=O)[C@H](O)[C@H]1O [D-Glucaro-1,4-lactone] | 0.4359 | -1.1978 |
| C[C@]12CC[C@@H]3c4ccc(O)cc4CC[C@H]3[C@@H]1C[C@@H](O)[C@@H]2O [Estriol] |  | -1.9 and -1.8773 |
| N[C@@H](Cc1ccc(O)cc1)C(=O)O [L-Tyrosine] |  | 0.5105 |
| CC=CC(O)CCCCC(=O)OC(CC(=O)[O-])C[N+](C)(C)C (stereo not drawn) [6-Hydroxynon-7-enoylcarnitine] | 0.3764 | -1.4097 |
| CCCC/C=C/CCCC(=O)OC(CC(=O)[O-])C[N+](C)(C)C (stereo not drawn) [5-Decenoylcarnitine] | 7E+00 and 7.016 | 2.8 and 2.8106 |
| Nc1ccn([C@H]2C[C@H](O)[C@@H](CO)O2)c(=O)n1 [Deoxycytidine] | 2.6792 | 1.4218 |
| O=C(O)[C@@H]1CCCN1 [L-Proline] | 6E-01 and 0.6085 | -0.7 and -0.7167 |
| CCOC(=O)[C@@](C)(N)Cc1ccc(O)c(O)c1 [Methyldopate] | 0.3271 | -1.6121 |
| CCCCCCc1ccc(CCCCCCCC(=O)O)o1 [5-Hexyl-2-furanoctanoic acid] | 6.7762 | 2.7605 |
| CCC1(CCC(C)(C)O)C(=O)NC(=O)NC1=O [3'-Hydroxyamobarbital] | 1.4617 | 0.5476 |

| Compound | Fold Change | log2(FC) |
| --- | --- | --- |
| CC(O)C(N)=O (stereo not drawn) [Lactamide] | 0.8454 | -0.2422 |
| CC(O)=CCCCCC(=O)NCC(=O)O [7-hydroxyoct-6-enoylglycine] | 3.2696 | 1.7091 |
| CC1(O)C=CC(=O)CC1 (stereo not drawn) [xi-4-Hydroxy-4-methyl-2-cyclohexen-1-one] | 0.705 | -0.5042 |
| COC(=O)C1=CO[C@@H](O[C@@H]2O[C@H](CO)[C@@H](O)[C@H](O)[C@H]2O)[C@@H]2[C@@H](C)[C@@H](O)C[C@H]12 [Loganoside] | 1.4295 | 0.5155 |
| O=c1cc[nH]c(=O)[nH]1 [Uracil] | 2.0778 | 1.055 |
| CC1=C(C=O)C(C)(C)C=C(O)C1=O [4-Hydroxy-2,6,6-trimethyl-3-oxo-1,4-cyclohexadiene-1-carboxaldehyde] | 3E+00 and 3.2069 | 1.7 and 1.6812 |
| O=C1NCc2ccccc21 [Isoindolin-1-one] | 0.4546 | -1.1373 |
| Chitobiose | 1.446 | 0.532 |
| C=CCCCCCCCCCC(=O)O [11-Dodecenoic acid] | 0.1304 | -2.9388 |
| O=C(O)[C@H]1O[C@@H](Oc2cccc3ccc(O)nc23)[C@H](O)[C@@H](O)[C@@H]1O [2,8-Dihydroxyquinoline-beta-D-glucuronide] | 0.4499 | -1.1524 |
| Cc1c[nH]c(=O)[nH]c1=O [Thymine] | 2.0513 | 1.0365 |
| c1ccc2[nH]ccc2c1 [Indole] | 46.866 | 5.5505 |
| CC/C=C\C[C@H]1C(=O)CC[C@@H]1CC(=O)N[C@H](C(=O)O)[C@@H](C)CC [N-Jasmonoylisoleucine] | 1.9849 | 0.989 |
| CC(=O)N[C@@H](Cc1ccccc1)C(=O)O [N-Acetyl-L-phenylalanine] | 4E-01 and 0.3732 | -1.4 and -1.422 |
| CC(C)(C)NCC(O)c1cc(O)cc(O)c1 (stereo not drawn) [Terbutaline] | 3E-01 and 0.3372 | -1.6 and -1.5682 |
| O=c1cc(-c2ccc(O)cc2)oc2cc(O)ccc12 [7,4'-Dihydroxyflavone] | 0.09391 | -3.4126 |
| Cn1c(N)ccnc1=O [3-Methylcytosine] | 1.9061 | 0.9306 |
